# Test results: PubChem BioAssay AID488837 (National Center for Advancing Translational Sciences (NCATS), 2010)
# The chains behind the UniProt entries cited, without tags or fusion partners. Where a name states a change or a piece, a line headed by the entry shows the natural chain unless it says otherwise.
# UniProt O00167: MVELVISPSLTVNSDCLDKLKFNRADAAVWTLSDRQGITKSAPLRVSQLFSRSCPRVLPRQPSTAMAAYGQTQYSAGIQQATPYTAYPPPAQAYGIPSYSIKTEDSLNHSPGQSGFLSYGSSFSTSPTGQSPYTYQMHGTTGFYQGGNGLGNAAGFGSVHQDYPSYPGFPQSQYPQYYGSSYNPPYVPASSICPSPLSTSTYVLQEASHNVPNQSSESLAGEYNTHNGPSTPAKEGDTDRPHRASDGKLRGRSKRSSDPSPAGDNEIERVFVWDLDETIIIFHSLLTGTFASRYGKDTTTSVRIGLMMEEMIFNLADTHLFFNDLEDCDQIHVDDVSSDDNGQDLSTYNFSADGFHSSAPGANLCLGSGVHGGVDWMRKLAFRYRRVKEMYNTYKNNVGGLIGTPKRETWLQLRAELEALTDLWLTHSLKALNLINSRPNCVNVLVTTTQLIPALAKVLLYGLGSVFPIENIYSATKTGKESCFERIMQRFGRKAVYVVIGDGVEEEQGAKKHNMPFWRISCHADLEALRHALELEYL
# In all, about 330,000 compounds went through this assay and about 20 (0.006%) were called active. The shares of active, inactive and inconclusive entries below differ from those in the screen. Calls come from the whole dose curve; as a rule, active = well fitted inhibition curve with a large enough effect; inconclusive = small, poorly fitted or top-dose-only effect, or effect the other way; inactive = flat fitted curve, though single readings scatter. Potencies of inconclusive entries are doubtful fits and often do not repeat.
# Target: Protein phosphatase EYA2 (Homo sapiens) (UniProt O00167)
# Assay: qHTS Assay for Inhibitors of the Phosphatase Activity of Eya2
# Conditions: recombinant Eya2, OMFP fluorescence dephosphorylation (OMFP is methylfluorescein phosphate); activity, negative = inhibition: at 76.9 µM (top of the series) unless noted
# Outline: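 Eya2 (0.2 uM) preincubated 10 min at ambient with compound, then OMFP substrate added at 50 uM; 10 min reaction in 50 mM HEPES pH 7.5, 50 mM NaCl, 5 uM MgCl2, 0.05% BSA, 1 mM DTT. Fluorescence read at Ex 485/Em 525 nm.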
# % is set by controls: 0 for no effect and ±100 for the full control effect; potency is the fitted concentration of half-maximal effect.
Compound,Potency,"activity, negative = inhibition"
O=C(CCC(=O)Nc1ccccc1Cl)N/N=C/c1ccccc1,inactive,–
COC(=O)c1ccc(C)c(NC(=O)CN(c2ccccc2)S(=O)(=O)N(C)C)c1,"inconclusive: 112 µM [inhibitor, single point]",–
Cc1cccc(OCc2nc(-c3nonc3N)no2)c1C,"inconclusive: 56.2 µM [inhibitor, partial curve, poor fit]",–
Cc1ccc(C(=O)NC2CCS(=O)(=O)C2)cc1S(=O)(=O)N1CCCC1 (stereo not given),inactive,–
FC(F)(F)c1cccc(Cc2noc(CN(Cc3ccccn3)CC3CCCO3)n2)c1 (stereo not given),"inconclusive: 100 µM [inhibitor, single point]",–
O=[N+]([O-])c1ccc(-c2ccc(C=Nc3cccc4ccccc34)o2)cc1,inactive,–
COCCn1c(C)cc(C(=O)COC(=O)/C=C/c2cccc(OC)c2)c1C,"inconclusive: 12.6 µM [inhibitor, partial curve, poor fit]",–
O=C(CC1SC(N2CCCC2)=NC1=O)Nc1ccc(C(=O)N2CCN(c3cccc(Cl)c3)CC2)cc1 (stereo not given),inactive,–
CCOC(=O)CSC1=NC(=O)/C(=C\c2ccc(Cl)cc2)S1,inactive,–
CCN(CC)CCN1C(=O)c2ccccc2NC1c1cccc(F)c1 (stereo not given),inactive,–
COc1ccc(N(CC(=O)NCC2CCCO2)S(=O)(=O)c2c(C)noc2C)cc1 (stereo not given),inactive,–
Nc1cc(=O)[nH]c(SCC(=O)Nc2cc(S(=O)(=O)N3CCOCC3)ccc2Cl)n1,"inconclusive: 79.4 µM [inhibitor, single point]",–
O=C(Nc1cccc(Cl)c1)Nc1csc([N+](=O)[O-])c1,inactive,–
Cc1ncc(CO)c(CNc2ccc(Oc3ccccc3)cc2)c1O,inactive,–
O=C(CCOc1ccc(F)cc1)Nc1nccs1,"inconclusive: 89.1 µM [inhibitor, single point]",–
CN(C(=O)CC1C(=O)NCCN1CC(c1ccccc1)c1ccccc1)C(C1CC1)C1CC1 (stereo not given),"inconclusive: 89.1 µM [inhibitor, single point]",–
N#CCCn1nnc2ccccc21,"inconclusive: 15.8 µM [inhibitor, single point]",–
COc1cc(NC(=O)CN2C(=O)COc3ccc(S(=O)(=O)N4CCCC4)cc32)cc(OC)c1,inactive,–
COc1ccc(CN2CCN(c3ncccn3)CC2)c(C)c1C,"inconclusive: 631 µM [inhibitor, single point]",–
Cc1cccc(C(=O)NCCC(=O)Nc2ccc(F)c([N+](=O)[O-])c2)c1,"inconclusive: 17.8 µM [inhibitor, single point]",–
CC(=O)Nc1ccc(N=Cc2c(O)ccc3ccccc23)cc1,–,inconclusive: 130% [activator]
O=c1oc2ccc([N+](=O)[O-])cc2c(N2CCOCC2)c1[N+](=O)[O-],"inconclusive: 89.1 µM [inhibitor, single point]",–
C[C@@H]1CN([C@@H](C)CO)C(=O)Cc2cc(NS(=O)(=O)c3ccccc3)ccc2O[C@H]1CN(C)S(C)(=O)=O,"inconclusive: 56.2 µM [inhibitor, single point]",–
CCC(C)(C)NC(=O)C(c1ccc(C)cc1)N(CC1CCCO1)C(=O)CNC(=O)c1cccs1 (stereo not given),"inconclusive: 89.1 µM [inhibitor, single point]",–

Compound,Potency,"activity, negative = inhibition"
O=C(Nc1cc(F)ccc1F)C1CCCN1S(=O)(=O)c1cccc2nsnc12 (stereo not given),inactive,–
O=C(COC(=O)c1ccc(O)cc1)Nc1cccc(S(=O)(=O)N2CCCCC2)c1,"inconclusive: 100 µM [inhibitor, single point]",–
CCc1cccc(CC)c1NC(=O)CO/N=C(\N)CC(=O)NC1CCCCC1,"inconclusive: 22.4 µM [inhibitor, single point]",–
Cc1cccc[n+]1CC(=O)Nc1ccc([N+](=O)[O-])cc1Cl,"inconclusive: 22.4 µM [inhibitor, single point]",–
O=c1[nH]c(=S)[nH]c2c1CN(Cc1ccc(F)cc1)CC2,inactive,–
COc1ccc(Cl)cc1C(=O)Nc1ccncc1,inactive,–
COc1ccccc1C(=O)COC(=O)c1cccc(-n2cnnn2)c1,"inconclusive: 25.1 µM [inhibitor, single point]",–
Cc1ccc(NC(=O)CCNS(=O)(=O)c2ccc3c(c2)CCC(=O)N3)cc1F,"inconclusive: 20 µM [inhibitor, single point]",–
Cc1nc2ccc(C(=O)OCc3nnc(-c4ccc(Br)cc4)o3)cc2nc1C,"inconclusive: 70.8 µM [inhibitor, single point]",–
CCOC(=O)c1c(/N=C/c2ccc(C)cc2O)sc2c1CCN(C)C2,"inconclusive: 25.1 µM [inhibitor, single point]",–
Cc1ccc(SCCC(=O)OCC(=O)NCC2CCCCC2)cc1,"inconclusive: 158 µM [inhibitor, partial curve]",–
O=C(COC(=O)c1ccccc1Br)NC1CCCCCCC1,"inconclusive: 89.1 µM [inhibitor, partial curve]",–
CC(Nc1ncnc2sccc12)c1ccccc1 (stereo not given),"inconclusive: 20 µM [inhibitor, single point]",–
O=C(CCN1C(=O)/C(=C\c2ccccc2)SC1=S)NNC(=O)c1ccncc1,"inconclusive: 126 µM [inhibitor, single point]",–
COC(=O)C1=CN(Cc2ccc(OC)cc2)C=C(C(=O)OC)C1c1ccc(O)c(OC)c1,"inconclusive: 15.8 µM [inhibitor, single point]",–
CCN(CC(=O)Nc1ccc(C)c(F)c1)CC(=O)NC(C)(C)C,"inconclusive: 112 µM [inhibitor, single point]",–
CCC(CC)NCc1ccc2c(c1)c1ccccc1n2CC,inactive,–
CCCNC(=O)COCc1cc(-c2ccc3c(c2)OCO3)on1,"inconclusive: 100 µM [inhibitor, single point]",–
Cc1cccc(OCC(=O)NCC(=O)N/N=C/c2c(C)[nH]c3ccccc23)c1,"inconclusive: 22.4 µM [inhibitor, single point]",–
O=C1C2CC=CCC2C(=O)N1c1n[nH]c(Cc2ccccc2)n1 (stereo not given),"inconclusive: 17.8 µM [inhibitor, single point]",–
Nc1cccc(N2C(=O)c3cccc4c(N)ccc(c34)C2=O)c1,"inconclusive: 31.6 µM [activator, partial curve]",–
CNC(=O)CSc1nnc(-c2ccccc2F)n1CCc1ccccc1,inactive,–
CC[C@H](C)[C@H](NC(N)=O)C(=O)NCCc1ccc(OC)cc1,"inconclusive: 355 µM [inhibitor, partial curve, poor fit]",–

# In the list so far, 9 have fluorine.
Compound,Potency,"activity, negative = inhibition"
FC(F)(F)c1cccc(Cc2noc(CN(Cc3ccccn3)CC3CCCO3)n2)c1 (stereo not given),"inconclusive: 100 µM [inhibitor, single point]",–
CCN(CC)CCN1C(=O)c2ccccc2NC1c1cccc(F)c1 (stereo not given),inactive,–
O=C(CCOc1ccc(F)cc1)Nc1nccs1,"inconclusive: 89.1 µM [inhibitor, single point]",–
Cc1cccc(C(=O)NCCC(=O)Nc2ccc(F)c([N+](=O)[O-])c2)c1,"inconclusive: 17.8 µM [inhibitor, single point]",–
O=C(Nc1cc(F)ccc1F)C1CCCN1S(=O)(=O)c1cccc2nsnc12 (stereo not given),inactive,–
O=c1[nH]c(=S)[nH]c2c1CN(Cc1ccc(F)cc1)CC2,inactive,–
Cc1ccc(NC(=O)CCNS(=O)(=O)c2ccc3c(c2)CCC(=O)N3)cc1F,"inconclusive: 20 µM [inhibitor, single point]",–
CCN(CC(=O)Nc1ccc(C)c(F)c1)CC(=O)NC(C)(C)C,"inconclusive: 112 µM [inhibitor, single point]",–
CNC(=O)CSc1nnc(-c2ccccc2F)n1CCc1ccccc1,inactive,–

# Two entries picked at random from those above:
Compound,Potency,"activity, negative = inhibition"
Nc1cccc(N2C(=O)c3cccc4c(N)ccc(c34)C2=O)c1,"inconclusive: 31.6 µM [activator, partial curve]",–
CNC(=O)CSc1nnc(-c2ccccc2F)n1CCc1ccccc1,inactive,–

# Continuation.

Compound,Potency,"activity, negative = inhibition"
Cc1nnc(SCC(=O)N(C)c2c(N)n(Cc3ccccc3)c(=O)[nH]c2=O)n1Cc1ccccc1,"inconclusive: 100 µM [inhibitor, single point]",–
Cn1ccc(C(=O)N/N=C/c2cccnc2)n1,"inconclusive: 25.1 µM [inhibitor, partial curve]",–
CCOC(=O)c1cc2c(ccc3ccccc32)oc1=O,inactive,–
COc1cc(NC(=O)c2ccc(Br)cc2)c(OC)cc1NC(=O)c1ccccc1,"inconclusive: 20 µM [inhibitor, single point]",–
COc1cccc(NC(=O)Nc2nc(-c3ccc(OC)c(OC)c3)cs2)c1,inactive,–
Cn1nc([N+](=O)[O-])c(C(C#N)c2ccccn2)c(Cl)c1=O (stereo not given),inactive,–
O=c1cc(CSc2nnc(COc3ccccc3)o2)c2ccccc2[nH]1,"inconclusive: 79.4 µM [inhibitor, single point]",–
O=C(CC1CCCC1)Nc1cc(S(=O)(=O)N2CCOCC2)ccc1O,"inconclusive: 100 µM [inhibitor, single point]",–
CCn1cc(/C=C/c2cc[n+](C)cc2)c2ccccc21,"inconclusive: 20 µM [activator, partial curve]",–
O=C(N/N=C/c1c[nH]c2ccccc12)c1cc(Br)ccc1O,"inconclusive: 100 µM [inhibitor, single point]",–
Cc1ccc(F)cc1NC(=O)CSCc1c(C)noc1C,"inconclusive: 2240 µM [inhibitor, partial curve, poor fit]",–
COc1cc(C(=O)N2CCN(C(=O)C3COc4ccccc4O3)CC2)cc(OC)c1OC (stereo not given),"inconclusive: 22.4 µM [inhibitor, single point]",–
COc1ccc(C(=O)N2CCc3cc(OC)c(OC)cc3C2c2ccc(OC)c(OC)c2)cc1 (stereo not given),"inconclusive: 79.4 µM [inhibitor, single point]",–
O=C(Nc1nc2c(Cl)cccc2s1)C1CC1,"inconclusive: 70.8 µM [inhibitor, single point]",–
Cc1oc(-c2cccs2)nc1CS(=O)CC(=O)NCCc1ccccc1 (stereo not given),inactive,–
COc1ccccc1-c1cc(C(F)(F)F)nc(S(=O)(=O)CCCC(=O)NC(C)C)n1,"inconclusive: 12.6 µM [inhibitor, single point]",–
C=CCNc1nc(Nc2cc(Cl)ccc2OC)nc(OC)n1,"inconclusive: 25.1 µM [inhibitor, single point]",–
Cc1ccsc1C(=O)OCC(=O)Nc1sccc1C(N)=O,"inconclusive: 112 µM [inhibitor, single point]",–
O=C(O)Cn1cc(C(=S)N2CCCCC2)c2ccccc21,inactive,–
COc1ccc2cc(C)c3nnc(SCc4cccnc4)n3c2c1,"inconclusive: 25.1 µM [inhibitor, single point]",–
CCc1ccc(OCCNc2cc(N3CCNC(C)C3)ccc2[N+](=O)[O-])cc1 (stereo not given),"inconclusive: 200 µM [inhibitor, partial curve, poor fit]",–
